# Results: PubChem BioAssay AID504834 (National Center for Advancing Translational Sciences (NCATS), 2011)
# Out of some 320,000 compounds screened, about 22,000 (6.9%) were called active. Inconclusive results, whose numbers are uncertain, are shown with a selection of clear calls. Calls follow the shape of the dose curve; as a rule, active = well fitted inhibition curve with a large enough effect; inconclusive = small, poorly fitted or top-dose-only effect, or another doubt; inactive = no such curve, though single readings can be large or run the other way. Potencies of inconclusive entries are doubtful fits and often do not repeat.
# Test: Primary qHTS for delayed death inhibitors of the malarial parasite plastid, 96 hour incubation
# Conditions: P. falciparum luciferase reporter growth; series mostly up to 28.7 µM
# Outline: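 Readout is luminescence from an integrated firefly luciferase in P. falciparum. Red cells, 2% hematocrit and 0.05% parasitemia final, were cultured with compound through two parasite generations (96 hours) at 37 C, 5% CO2.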
# % is scaled to controls: 0 for no effect and ±100 for the full control effect; potency is read from the fitted curve at half-maximal effect.
SMILES,Potency,"activity change, negative = inhibition"
COc1ccc(/C=N/NC(=O)c2cccc([N+](=O)[O-])c2)cc1O,inactive,
O=C(CCS(=O)(=O)Cc1ccccc1)Nc1ccc2c(c1)OCCO2,active: 2.94 µM,
COc1ccc(/C=N/NC(=O)c2ccc(N)cc2)cc1Cn1cc([N+](=O)[O-])cn1,active: 11.7 µM,
CCCSc1nnc(CSc2nc(C)cc(C)n2)n1C,active: 10.4 µM,
O=C(Nc1ccncc1)Nc1ccccn1,active: 8.28 µM,
CCC(C)(C(=O)NC1CCCCC1)N(C(=O)C1CCC(=O)N1)c1ccccc1 (stereo unspecified),"inconclusive: 0.0415 µM [inhibitor, full curve, poor fit]",
CCCc1nc(SC2CCCC2)c2c(=O)n(C)c(=O)n(C)c2n1,"inconclusive: 4.15 µM [inhibitor, partial curve, poor fit]",
CCc1ccc(NC(=O)COC(=O)c2ccc(Cl)c(S(=O)(=O)N3CCCCCC3)c2)cc1,inactive,
O=C1CC(c2cc3c(cc2Br)OCO3)C2=C(CCCC2=O)N1 (stereo unspecified),"inconclusive: 0.117 µM [inhibitor, full curve, poor fit]",
CCOC(=O)NC(=O)CSc1ccc(S(=O)(=O)N(C)C2CCCCC2)cn1,active: 13.1 µM,
CC(C)CN(C(=O)COC(=O)CSc1ccc(Br)cc1)C1CCS(=O)(=O)C1 (stereo unspecified),inactive,
Cc1cccc2c1-c1sc(C(=O)Nc3cccc([N+](=O)[O-])c3C)cc1CO2,active: 0.738 µM,
C/C=C(\C)CN1CCC(n2nccc2NC(=O)c2ccc(OC)cc2)CC1,"inconclusive: 18.5 µM [inhibitor, single point]",
COc1ccc(CN(C#N)c2nc(C)cc(C)n2)cc1,active: 7.38 µM,
Cc1ccc(C(=O)N/C(=C/c2ccc(F)cc2)C(=O)NCc2ccncc2)cc1,"inconclusive: 9.28 µM [inhibitor, partial curve]",
O=C(Nc1ccc(S(=O)(=O)N2CCOCC2)cc1)c1ccc(F)cc1,"inconclusive: 9.28 µM [inhibitor, partial curve, poor fit]",
CC(=O)c1cn(CCOc2cc(C)ccc2C)c2ccccc12,"inconclusive: 18.5 µM [inhibitor, single point]",
Cc1cccc(NC(=O)C2CCCN(S(=O)(=O)c3ccc4[nH]c(=O)ccc4c3)C2)c1 (stereo unspecified),"inconclusive: 10.4 µM [inhibitor, single point]",
O=C(Nc1ccc(Cl)cc1)Nc1nc(-c2ccccc2O)cs1,"inconclusive: 2.62 µM [inhibitor, full curve, poor fit]",
CCC(=O)Nc1nc(C)c(-c2csc(Nc3cccc(C(=O)O)c3)n2)s1,"inconclusive: 1.65 µM [inhibitor, full curve, poor fit]",
O=C1CC(c2ccco2)=Nc2ccccc2N1,,inactive: -0.0684% [at 5.75 µM]
C/C=C/c1ccc(OCCOCCNCc2ccccc2)c(OC)c1,"inconclusive: 13.1 µM [inhibitor, single point]",
CCCNC(=O)c1onc(CS(=O)(=O)c2cccc(OC)c2)c1C(=O)NCCC,"inconclusive: 18.5 µM [inhibitor, single point]",

SMILES,Potency,"activity change, negative = inhibition"
Cc1ccc(S(=O)(=O)NC(=O)NC2CCCCC2)cc1,inactive,
CC1CC(=O)N(CC(=O)N2CCCC2)c2ccccc2S1 (stereo unspecified),"inconclusive: 4.15 µM [inhibitor, partial curve, poor fit]",
O=C(CN1C(=O)COc2ccc(S(=O)(=O)N3CCCC3)cc21)Nc1cccc(F)c1,"inconclusive: 18.5 µM [inhibitor, single point]",
COc1ccc(N2C(=O)CN=C2Nc2nc(C)cc(C)n2)cc1OC,"inconclusive: 0.0828 µM [inhibitor, full curve, poor fit]",
COc1ncccc1C(=O)NC1CCCc2c1cnn2-c1ccc(C)c(C)c1 (stereo unspecified),inactive,
S=C(NNc1ccnc2cc(Cl)ccc12)Nc1ccc(Cl)cc1Cl,active: 0.738 µM,
NC1=NC(=O)/C(=C/c2ccc(Br)cc2)S1,active: 2.33 µM,
COC(=O)c1sc(S(=O)(=O)N2CCCCC2)c(C(=O)OC)c1C,inactive,
CC1(C)CC(=O)C2=C(C1)O[C@@]1(CCCCN3C(=O)c4ccccc4C3=O)Cc3ccccc3C2O1,active: 1.69 µM,
CNC(=O)c1cc2cc(Br)ccc2s1,"inconclusive: 10.4 µM [inhibitor, partial curve, poor fit]",
O=C(OCCN1C(=O)c2ccccc2C1=O)c1cc2ccccc2o1,,inactive: 28.2% [at 5.75 µM]
COc1cc(C(=O)NCCOc2cc(C)cc(C)c2)c(Br)c(OC)c1OC,active: 13.1 µM,
CC(=O)c1c(C)[nH]c(C(=O)Nc2ccc(Cl)cc2F)c1C,inactive,
Cc1ccc(-c2nnc(-c3ccc(NC(=O)Cc4cccs4)cc3)o2)cc1,inactive,
CC(C)C(=O)c1cn(CC(=O)NCC2CCCO2)c2ccccc12 (stereo unspecified),"inconclusive: 18.5 µM [inhibitor, single point]",
Cn1c(=O)oc2cc(S(=O)(=O)N3CCC(C(=O)NCc4ccccc4)CC3)ccc21,"inconclusive: 18.5 µM [inhibitor, single point]",
Cc1ccc2c(c1)c(=O)c1c3n2CCN(C(=O)CCl)C3CC1 (stereo unspecified),active: 5.22 µM,
Cc1ccc(-n2nc3c(=O)n(CCCC(=O)NCc4ccccc4C)nc(C)c3c2C)cc1,"inconclusive: 0.262 µM [inhibitor, full curve]",
Clc1cccc(NCc2nnc3n2CCCCC3)c1,"inconclusive: 18.5 µM [inhibitor, single point]",
CCOC(=O)C1CCCN(C(=O)c2cncc(Br)c2)C1 (stereo unspecified),"inconclusive: 10.4 µM [inhibitor, partial curve, poor fit]",
C/C(CC(=O)Nc1cccc(Cl)c1Cl)=N\NC(=O)C(=O)NC1CCCCC1,"inconclusive: 10.4 µM [inhibitor, single point]",
C[C@@H]1NS(=O)(=O)[C@H]2C[C@@H]3C=C[C@]2(O3)[C@H]1OC(=O)c1ccc(C(C)(C)C)cc1,"inconclusive: 9.28 µM [inhibitor, partial curve]",
COCCn1c(=O)[nH]c2cc(C(=O)N3CCN(c4cccc(C(F)(F)F)c4)CC3)ccc2c1=O,active: 11.7 µM,

# As entered above.
# Potency, Cc1ccc2c(c1)c(=O)c1c3n2CCN(C(=O)CCl)C3CC1 (stereo unspecified) reads active: 5.22 µM
# Potency, NC1=NC(=O)/C(=C/c2ccc(Br)cc2)S1 reads active: 2.33 µM
# Potency, CC1(C)CC(=O)C2=C(C1)O[C@@]1(CCCCN3C(=O)c4ccccc4C3=O)Cc3ccccc3C2O1 reads active: 1.69 µM
